## Library screening results

The chains behind the UniProt entries cited, without tags or fusion partners.
UniProt E9BF75, entry or part of it: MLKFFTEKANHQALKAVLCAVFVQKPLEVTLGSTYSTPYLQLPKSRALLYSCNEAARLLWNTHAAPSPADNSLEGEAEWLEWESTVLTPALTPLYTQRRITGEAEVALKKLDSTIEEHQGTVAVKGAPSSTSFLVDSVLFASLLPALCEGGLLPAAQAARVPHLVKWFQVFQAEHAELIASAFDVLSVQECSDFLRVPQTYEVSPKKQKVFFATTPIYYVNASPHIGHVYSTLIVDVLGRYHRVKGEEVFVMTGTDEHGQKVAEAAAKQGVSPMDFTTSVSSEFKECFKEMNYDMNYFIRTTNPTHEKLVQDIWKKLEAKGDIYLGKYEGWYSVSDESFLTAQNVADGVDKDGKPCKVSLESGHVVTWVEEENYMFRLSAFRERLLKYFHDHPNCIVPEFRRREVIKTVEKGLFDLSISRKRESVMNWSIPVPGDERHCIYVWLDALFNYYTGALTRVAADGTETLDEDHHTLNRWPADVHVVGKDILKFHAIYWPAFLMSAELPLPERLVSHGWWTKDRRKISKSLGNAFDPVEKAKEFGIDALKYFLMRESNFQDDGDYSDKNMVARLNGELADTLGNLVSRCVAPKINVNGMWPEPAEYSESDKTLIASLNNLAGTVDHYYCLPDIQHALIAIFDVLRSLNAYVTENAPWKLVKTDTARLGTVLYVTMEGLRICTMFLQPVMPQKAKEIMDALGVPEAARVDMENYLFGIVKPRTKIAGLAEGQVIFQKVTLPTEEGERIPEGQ

Results are percentages, as filed. The record does not define 0% and 100%; most values in the screen are far below 50% and negative numbers occur (in some assays of this library far below -100). This is an unselected part of the compounds tested.

LdMetRS: 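Methionyl-tRNA synthetase (putative), Leishmania donovani (UniProt E9BF75). Primary screen of methionyl-tRNA synthetase; the read-out is not stated. The test concentration is not given. The values are filed as inhibition. Size under these conditions: about 68,000 compounds, about 24 of them at 50% or above in at least one test.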
Mtb heat-shock: 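Assay on Mycobacterium tuberculosis, filed only as a heat shock assay from Cornell; the read-out is not stated. The concentration is filed as 10 mM, unlikely as a test dose, so the dose is not known. Direction is inferred from retests: higher values go with stronger inhibition. About 69,000 compounds were tested under these conditions; 1.4% (about 930) showed 50% or more at least once.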

- CCOC(=O)c1sc(NC(=O)C(C)(C)C)c(C#N)c1C | LdMetRS: -23.57%; Mtb heat-shock: -27.09%
- O=C(O)C(F)(F)F.[H][C@@]12CCN(CC(C)C)[C@@]1([H])CCN2S(=O)(=O)c1cn(C)cn1 | Mtb heat-shock: -0.9215%
- CCCNC(=O)c1cc2c(s1)CCN2C(=O)CN(C)C.O=C(O)C(F)(F)F | Mtb heat-shock: 1.454%
- Cc1ccc(-c2cc(CN3CCCC(Cn4cncn4)C3)on2)cc1 (stereo not drawn) | LdMetRS: 3.136%; Mtb heat-shock: 8.997%
- COc1cccc(-c2nnn(C3CCN(CC(F)(F)F)C3=O)n2)c1 (stereo not drawn) | LdMetRS: 16.42%; Mtb heat-shock: -3.933%
- Cc1cc(N(C)CC2COc3ccccc3O2)nc(C)n1 (stereo not drawn) | LdMetRS: 11.85%; Mtb heat-shock: 3.795%
- COc1ccccc1Oc1ncccc1CNC(=O)[C@@H](C)NC(C)=O | LdMetRS: 14.16%; Mtb heat-shock: 11.05%
- CN(c1ccncn1)C1CC2(CCN(C(=O)CCc3cccs3)C2)C1 (stereo not drawn) | LdMetRS: 14.73%; Mtb heat-shock: -10.83%
- CN(C)CC(=O)N1CCC2(CC1)COCCN(Cc1ccncc1)C2 | LdMetRS: 16.48%; Mtb heat-shock: -12.12%
- O=C(c1cccs1)N1C[C@@H]2OCCN(CC3CCCO3)[C@@H]2C1 (stereo partly drawn) | LdMetRS: 12.5%
- Cc1cc(CN(Cc2cccnc2)CC2CCCO2)on1 (stereo not drawn) | LdMetRS: 18.05%; Mtb heat-shock: 9.623%
- CC(=O)N1CCCN(C(=O)NCc2ccc(-c3ccn[nH]3)cc2)CC1 | LdMetRS: 11.45%; Mtb heat-shock: 3.433%
- C=C(C)CN(CC)Cc1nc(C)no1 | LdMetRS: 4.53%; Mtb heat-shock: 0.4898%
- CCc1nnc(CN2CCCCC2Cn2nc(C)nc2C)o1 (stereo not drawn) | LdMetRS: 13.96%; Mtb heat-shock: -10.85%
- CN(Cc1ccco1)C(=O)Nc1cccnc1N1CCCC1 | LdMetRS: 24.57%; Mtb heat-shock: -16.7%
- CN(Cc1ccccc1)C1(C(=O)NC(C)(C)CO)Cc2ccccc2C1 | LdMetRS: 4.795%; Mtb heat-shock: -14.25%
- O=C(Nc1ccccc1)C1CN(Cc2ccsc2)CC12CCOCC2 (stereo not drawn) | LdMetRS: 3.226%
- CCOc1cccc(CCNC(=O)Cc2cccc(O)c2)n1 | LdMetRS: 17.58%; Mtb heat-shock: 7.559%
- O=C(O)C(F)(F)F.[H][C@@]12C[C@@H](C(=O)NC3CCC3)C[C@@]1([H])N(CC1CC1)CCO2 | Mtb heat-shock: 0.2377%
- CCc1ccc(CNC(=O)CCNS(=O)(=O)c2cn(C)c(C)n2)s1 | LdMetRS: 4.19%; Mtb heat-shock: -12.28%
- CC(C)c1n[nH]c(C(=O)Nc2cc[nH]n2)c1Br | LdMetRS: 6.103%; Mtb heat-shock: 4.113%
- Cc1cccc(CSc2nnc(C)n2CC(N)=O)c1 | LdMetRS: 18.56%; Mtb heat-shock: -2.317%
- Cc1nn(C)cc1C1CC(=O)Nc2c1cnn2C (stereo not drawn) | LdMetRS: 13.7%; Mtb heat-shock: 8.34%
- COc1ccccc1C1(NCc2c(C)nc3c(C)cccn23)CCCC1 | LdMetRS: 0.3125%
- O=C(c1cc(C2CC2)n[nH]1)N1C[C@H]2CC[C@](O)(c3ccccc3F)[C@H]2C1 | LdMetRS: 11.05%

Once more, the final 2:

{"compound": "COc1ccccc1C1(NCc2c(C)nc3c(C)cccn23)CCCC1", "LdMetRS": 0.3125}
{"compound": "O=C(c1cc(C2CC2)n[nH]1)N1C[C@H]2CC[C@](O)(c3ccccc3F)[C@H]2C1", "LdMetRS": 11.05}

Source: ChEMBL document CHEMBL3988442, “University of Dundee, Small-Polar-MMV Screening Library” (2021).